Source: US8802672B2, “Pyrimidinyl-piperazines useful as D3/D2 receptor ligands” (Richter Gedeon Nyrt., priority 2007, dated 2014)
At least one structure is not confirmed: it was looked up by name or label, or the drawing left a doubt.

Molecular target: adrenergic alpha-1 receptors (rat cortical membrane preparation)
Assay: Alpha-1 receptor binding
Conditions: [3H]-prazosine, rat cortical membranes; read-out: α-1 Ki

SMILES	Ki [nM]
CCNC(=O)N[C@H]1CC[C@H](CCN2CCN(c3nc(NC)nc(Cl)c3Cl)CC2)CC1 [Compound 10, Trans-1-(4-{2-[4-(5,6-dichloro-2-methylamino-pyrimidin-4-yl)-piperazin-1-yl]-ethyl}-cyclohexyl)-3-ethyl-urea]	> 1000
CNc1nc(Cl)c(Cl)c(N2CCN(CC[C@H]3CC[C@H](NC(C)=O)CC3)CC2)n1 [Compound 1, Trans-N-(4-{2-[4-(5,6-dichloro-2-methylamino-pyrimidin-4-yl)-piperazin-1-yl]-ethyl}-cyclohexyl)-acetamide]	> 1000
